Measured values published in paper PMC3651266.
No constants are given. Whether binding was seen depends on the method and setting. In cells and extracts the contact can be indirect. A result given as binding can be weak or reduced; the word gives no strength.

By UniProt entry, the sequences of proteins in these tests, tags left out. Where a name states a change or a piece, a line headed by the entry shows the natural chain unless it says otherwise.
UniProt O75914: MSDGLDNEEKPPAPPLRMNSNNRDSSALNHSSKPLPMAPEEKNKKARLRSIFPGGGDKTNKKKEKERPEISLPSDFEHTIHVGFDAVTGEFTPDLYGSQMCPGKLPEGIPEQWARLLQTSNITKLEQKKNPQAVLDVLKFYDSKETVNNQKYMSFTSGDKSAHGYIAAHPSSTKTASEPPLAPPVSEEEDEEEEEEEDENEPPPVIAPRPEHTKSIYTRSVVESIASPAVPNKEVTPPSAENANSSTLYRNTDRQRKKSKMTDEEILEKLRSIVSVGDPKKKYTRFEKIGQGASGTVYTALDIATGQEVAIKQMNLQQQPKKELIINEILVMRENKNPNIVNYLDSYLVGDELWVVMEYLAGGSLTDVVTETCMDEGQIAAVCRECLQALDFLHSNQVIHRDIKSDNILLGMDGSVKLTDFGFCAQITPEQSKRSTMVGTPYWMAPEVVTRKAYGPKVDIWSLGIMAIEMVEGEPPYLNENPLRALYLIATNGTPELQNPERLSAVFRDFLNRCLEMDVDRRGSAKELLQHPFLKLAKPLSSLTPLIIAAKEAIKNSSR

Biological target: M5 truncated mutant of Pak3 (N-terminal regulatory domain alone) (UniProt O75914)
Assay: co-IP; HEK293T cells co-transfected; lysis buffer 20 mM Tris-HCl pH 7.5, 100 mM NaCl, 0.1% NP-40, 0.5 mM EDTA; lysate with anti-Flag or anti-V5 at 4°C overnight, protein A-agarose, three washes; Western blotting with anti-Flag, anti-V5, anti-Tax

“HTLV-1 transactivator protein Tax (from UniProt P03409 1-353)” was tested, and the binding was “binds”.
